# Reference: the supplement of paper PMC8728848
# The list shows a part of the results.
# B1: Mincle (Bos taurus) (protein)
# chain: MNSSTSPASQTERRCFSFQLFSWAIAGTSILLLSACFITRCVVTYSIFQLCDEKKFQPPGDSMELSCYNDGSGSVKNCCPLKWFHFQSSCYLFSPDTMSWRASLKNCSSMGAHLVVINTQEEQEFLYYTKPRKKEFYIGLTDQVTEGQWQWVDGTPFTKSLSFWDAGEPNNLVIVEDCATIRDSSNPRQNWNDVPCFFNMFRVCEMPERKI
# How the values were obtained:
# Assay in all cases: glycan array binding signal (z-score within array); higher = stronger binding
# Settings in all cases: glycan notation: IUPAC condensed, linker removed
# [1] = molecular target: Fuc(a1-2)[Gal(a1-3)]Gal(b1-4)GlcNAc(b1-2)Man(a1-3)[Fuc(a1-2)[Gal(a1-3)]Gal(b1-4)GlcNAc(b1-2)Man(a1-6)]Man(b1-4)GlcNAc(b1-4)[Fuc(a1-6)]GlcNAc
# Summary of the method: (§1)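 The binding signal is a Z-score computed within each array and averaged over linkers. Arrays of the same protein sequence at different concentrations or buffers were also averaged together. Data originate from 3228 arrays in the Consortium for Functional Glycomics database, kept only where the protein sequence was available.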
# [2] = molecular target: Fuc(a1-2)[Gal(a1-3)]Gal(b1-4)GlcNAc(b1-3)GalNAc
# Summary of the method: as §1
# [3] = molecular target: Fuc(a1-2)[Gal(a1-3)]Gal(b1-4)GlcNAc(b1-3)[Fuc(a1-2)[Gal(a1-3)]Gal(b1-4)GlcNAc(b1-6)]GalNAc
# Summary of the method: as §1
# [4] = molecular target: Fuc(a1-2)[Gal(a1-3)]Gal(b1-4)GlcNAc(b1-6)GalNAc
# Summary of the method: as §1
# [5] = molecular target: Fuc(a1-2)[Gal(a1-3)]Gal(b1-4)[Fuc(a1-3)]Glc
# Summary of the method: as §1
# [6] = molecular target: Fuc(a1-2)[Gal(a1-3)]Gal(b1-4)[Fuc(a1-3)]GlcNAc
# Summary of the method: as §1
# [7] = molecular target: Fuc(a1-2)[Gal(a1-3)]Gal(b1-4)[Fuc(a1-3)]GlcNAc(b1-3)GalNAc
# Summary of the method: as §1
# [8] = molecular target: Fuc(a1-2)[Gal(a1-4)]Gal(b1-4)GlcNAc
# Summary of the method: as §1
# [9] = molecular target: Fuc(a1-2)[GalNAc(a1-3)]Gal
# Summary of the method: as §1
# [10] = molecular target: Fuc(a1-2)[GalNAc(a1-3)]Gal(b1-3)GalNAc(a1-3)[Fuc(a1-2)]Gal(b1-4)GlcNAc
# Summary of the method: as §1
# [11] = molecular target: Fuc(a1-2)[GalNAc(a1-3)]Gal(b1-3)GalNAc(b1-3)Gal(a1-4)Gal(b1-4)Glc
# Summary of the method: as §1
# [12] = molecular target: Fuc(a1-2)[GalNAc(a1-3)]Gal(b1-3)GlcNAc
# Summary of the method: as §1
# [13] = molecular target: Fuc(a1-2)[GalNAc(a1-3)]Gal(b1-3)GlcNAc(b1-2)Man(a1-3)[Fuc(a1-2)[GalNAc(a1-3)]Gal(b1-3)GlcNAc(b1-2)Man(a1-6)]Man(b1-4)GlcNAc(b1-4)GlcNAc
# Summary of the method: as §1
# [14] = molecular target: Fuc(a1-2)[GalNAc(a1-3)]Gal(b1-3)GlcNAc(b1-2)Man(a1-3)[Fuc(a1-2)[GalNAc(a1-3)]Gal(b1-3)GlcNAc(b1-2)Man(a1-6)]Man(b1-4)GlcNAc(b1-4)[Fuc(a1-6)]GlcNAc
# Summary of the method: as §1
# [15] = molecular target: Fuc(a1-2)[GalNAc(a1-3)]Gal(b1-3)GlcNAc(b1-3)GalNAc
# Summary of the method: as §1
# [16] = molecular target: Fuc(a1-2)[GalNAc(a1-3)]Gal(b1-3)GlcNAc(b1-6)GalNAc
# Summary of the method: as §1
# [17] = molecular target: Fuc(a1-2)[GalNAc(a1-3)]Gal(b1-4)Glc
# Summary of the method: as §1
# [18] = molecular target: Fuc(a1-2)[GalNAc(a1-3)]Gal(b1-4)GlcNAc
# Summary of the method: as §1
# [19] = molecular target: Fuc(a1-2)[GalNAc(a1-3)]Gal(b1-4)GlcNAc(b1-2)Man
# Summary of the method: as §1
# [20] = molecular target: Fuc(a1-2)[GalNAc(a1-3)]Gal(b1-4)GlcNAc(b1-2)Man(a1-3)[Fuc(a1-2)[GalNAc(a1-3)]Gal(b1-4)GlcNAc(b1-2)Man(a1-6)]Man(b1-4)GlcNAc(b1-4)GlcNAc
# Summary of the method: as §1
# [21] = molecular target: Fuc(a1-2)[GalNAc(a1-3)]Gal(b1-4)GlcNAc(b1-2)Man(a1-3)[Fuc(a1-2)[GalNAc(a1-3)]Gal(b1-4)GlcNAc(b1-2)Man(a1-6)]Man(b1-4)GlcNAc(b1-4)[Fuc(a1-6)]GlcNAc
# Summary of the method: as §1
# [22] = molecular target: Fuc(a1-2)[GalNAc(a1-3)]Gal(b1-4)GlcNAc(b1-3)Gal(b1-4)GlcNAc
# Summary of the method: as §1
# [23] = molecular target: Fuc(a1-2)[GalNAc(a1-3)]Gal(b1-4)GlcNAc(b1-3)Gal(b1-4)GlcNAc(b1-3)Gal(b1-4)GlcNAc
# Summary of the method: as §1
# [24] = molecular target: Fuc(a1-2)[GalNAc(a1-3)]Gal(b1-4)GlcNAc(b1-3)GalNAc
# Summary of the method: as §1
# [25] = molecular target: Fuc(a1-2)[GalNAc(a1-3)]Gal(b1-4)GlcNAc(b1-3)[Fuc(a1-2)[GalNAc(a1-3)]Gal(b1-4)GlcNAc(b1-6)]GalNAc
# Summary of the method: as §1
# [26] = molecular target: Fuc(a1-2)[GalNAc(a1-3)]Gal(b1-4)GlcNAc(b1-6)GalNAc
# Summary of the method: as §1
# [27] = molecular target: Fuc(a1-2)[GalNAc(a1-3)]Gal(b1-4)[Fuc(a1-3)]GlcNAc
# Summary of the method: as §1
# [28] = molecular target: Fuc(a1-2)[GalNAc(a1-3)]Gal(b1-4)[Fuc(a1-3)]GlcNAc(b1-3)GalNAc
# Summary of the method: as §1
# [29] = molecular target: Fuc(a1-2)[GalNAc(a1-4)]Gal(b1-4)GlcNAc
# Summary of the method: as §1
# [30] = molecular target: Fuc(a1-2)[GalNAc(b1-3)]Gal
# Summary of the method: as §1
# Fuc(a1-3)GlcNAc = molecular target: Fuc(a1-3)GlcNAc
# Summary of the method: as §1
# [31] = molecular target: Fuc(a1-3)[Gal(b1-4)]Glc6S
# Summary of the method: as §1
# [32] = molecular target: Fuc(a1-3)[Gal(b1-4)]GlcNAc
# Summary of the method: as §1
# [33] = molecular target: Fuc(a1-3)[Gal(b1-4)]GlcNAc(b1-2)Man
# Summary of the method: as §1
# [34] = molecular target: Fuc(a1-3)[Gal(b1-4)]GlcNAc(b1-2)Man(a1-3)[Fuc(a1-3)[Gal(b1-4)]GlcNAc(b1-2)Man(a1-6)]Man(b1-4)GlcNAc(b1-4)GlcNAc
# Summary of the method: as §1
# [35] = molecular target: Fuc(a1-3)[Gal(b1-4)]GlcNAc(b1-2)Man(a1-3)[Fuc(a1-3)[Gal(b1-4)]GlcNAc(b1-2)Man(a1-6)]Man(b1-4)GlcNAc(b1-4)[Fuc(a1-6)]GlcNAc
# Summary of the method: as §1
# [36] = molecular target: Fuc(a1-3)[Gal(b1-4)]GlcNAc(b1-3)Gal(b1-3)[Fuc(a1-4)]GlcNAc
# Summary of the method: as §1
# [37] = molecular target: Fuc(a1-3)[Gal(b1-4)]GlcNAc(b1-3)Gal(b1-4)[Fuc(a1-3)]GlcNAc
# Summary of the method: as §1
# [38] = molecular target: Fuc(a1-3)[Gal(b1-4)]GlcNAc(b1-3)Gal(b1-4)[Fuc(a1-3)]GlcNAc(b1-3)Gal(b1-4)[Fuc(a1-3)]GlcNAc
# Summary of the method: as §1
# [39] = molecular target: Fuc(a1-3)[Gal(b1-4)]GlcNAc(b1-3)GalNAc
# Summary of the method: as §1
# [40] = molecular target: Fuc(a1-3)[Gal(b1-4)]GlcNAc(b1-6)GalNAc
# Summary of the method: as §1
# [41] = molecular target: Fuc(a1-3)[Gal(b1-4)]GlcNAc(b1-6)[Gal(b1-3)GlcNAc(b1-3)]Gal(b1-4)Glc
# Summary of the method: as §1
# [42] = molecular target: Fuc(a1-3)[Gal(b1-4)]GlcNAc6S
# Summary of the method: as §1
# [43] = molecular target: Fuc(a1-3)[Gal3S(b1-4)]Glc
# Summary of the method: as §1
# [44] = molecular target: Fuc(a1-3)[Gal3S(b1-4)]GlcNAc
# Summary of the method: as §1
binder,measurement,setting,value
B1,glycan array binding signal (z-score),[1],-0.601
same,glycan array binding signal (z-score),[2],0.2
same,glycan array binding signal (z-score),[3],-0.439
same,glycan array binding signal (z-score),[4],0.669
same,glycan array binding signal (z-score),[5],0.479
same,glycan array binding signal (z-score),[6],0.405
same,glycan array binding signal (z-score),[7],0.905
same,glycan array binding signal (z-score),[8],-0.081
same,glycan array binding signal (z-score),[9],0.052
same,glycan array binding signal (z-score),[10],0.332
same,glycan array binding signal (z-score),[11],-0.374
same,glycan array binding signal (z-score),[12],0.068
same,glycan array binding signal (z-score),[13],-0.527
same,glycan array binding signal (z-score),[14],0.364
same,glycan array binding signal (z-score),[15],0.855
same,glycan array binding signal (z-score),[16],-0.552
same,glycan array binding signal (z-score),[17],0.022
same,glycan array binding signal (z-score),[18],-0.683
same,glycan array binding signal (z-score),[19],-0.25
same,glycan array binding signal (z-score),[20],0.419
same,glycan array binding signal (z-score),[21],-0.007
same,glycan array binding signal (z-score),[22],-0.747
same,glycan array binding signal (z-score),[23],0.769
same,glycan array binding signal (z-score),[24],-0.54
same,glycan array binding signal (z-score),[25],-0.629
same,glycan array binding signal (z-score),[26],-0.73
same,glycan array binding signal (z-score),[27],-0.716
same,glycan array binding signal (z-score),[28],1.2
same,glycan array binding signal (z-score),[29],-0.983
same,glycan array binding signal (z-score),[30],0.834
same,glycan array binding signal (z-score),Fuc(a1-3)GlcNAc,0.348
same,glycan array binding signal (z-score),[31],-0.342
same,glycan array binding signal (z-score),[32],-0.284
same,glycan array binding signal (z-score),[33],-0.444
same,glycan array binding signal (z-score),[34],-0.045
same,glycan array binding signal (z-score),[35],1.85
same,glycan array binding signal (z-score),[36],-0.344
same,glycan array binding signal (z-score),[37],-0.254
same,glycan array binding signal (z-score),[38],-0.6
same,glycan array binding signal (z-score),[39],-0.25
same,glycan array binding signal (z-score),[40],-0.027
same,glycan array binding signal (z-score),[41],-0.943
same,glycan array binding signal (z-score),[42],-0.279
same,glycan array binding signal (z-score),[43],-0.083
same,glycan array binding signal (z-score),[44],-0.389

# Three records picked at random from those above:
binder,measurement,setting,value
B1,glycan array binding signal (z-score),[43],-0.083
same,glycan array binding signal (z-score),[6],0.405
same,glycan array binding signal (z-score),[13],-0.527
